No constants are given. Whether binding was seen depends on the method and setting. Binding seen in cells or lysates may run through a third protein. A result given as binding can be weak or reduced; the word gives no strength. Tags and fused reporters may be left off the sequences shown.
Key:
[1] = target: Hexose-6-phosphate dehydrogenase (human (endogenous in MCF7 and MDA-MB-231)); assay: co-IP; MCF7 cells, endogenous proteins; reversible intracellular crosslinking (2 mM DSP, 0.5 mM DTME), lysis in 1% Triton X-100 buffer, IP with rabbit polyclonal anti-H6PD antibody and protein A magnetic beads, washes with 0.5 M NaCl, immunoblot; rabbit IgG as control
[2] = target: Hexose-6-phosphate dehydrogenase (human (endogenous in MCF7 and MDA-MB-231)); assay: co-IP; MDA-MB-231 cells; reversible intracellular crosslinking (2 mM DSP, 0.5 mM DTME), lysis in 1% Triton X-100 buffer, IP with rabbit polyclonal anti-H6PD antibody and protein A magnetic beads, washes with 0.5 M NaCl, immunoblot; rabbit IgG as control

binding [1]: binds
binding [2]: binds
B1: Mannosyl-oligosaccharide glucosidase (enzyme, UniProt Q13724 1-837)
chain: MARGERRRRAVPAEGVRTAERAARGGPGRRDGRGGGPRSTAGGVALAVVVLSLALGMSGRWVLAWYRARRAVTLHSAPPVLPADSSSPAVAPDLFWGTYRPHVYFGMKTRSPKPLLTGLMWAQQGTTPGTPKLRHTCEQGDGVGPYGWEFHDGLSFGRQHIQDGALRLTTEFVKRPGGQHGGDWSWRVTVEPQDSGTSALPLVSLFFYVVTDGKEVLLPEVGAKGQLKFISGHTSELGDFRFTLLPPTSPGDTAPKYGSYNVFWTSNPGLPLLTEMVKSRLNSWFQHRPPGAPPERYLGLPGSLKWEDRGPSGQGQGQFLIQQVTLKIPISIEFVFESGSAQAGGNQALPRLAGSLLTQALESHAEGFRERFEKTFQLKEKGLSSGEQVLGQAALSGLLGGIGYFYGQGLVLPDIGVEGSEQKVDPALFPPVPLFTAVPSRSFFPRGFLWDEGFHQLVVQRWDPSLTREALGHWLGLLNADGWIGREQILGDEARARVPPEFLVQRAVHANPPTLLLPVAHMLEVGDPDDLAFLRKALPRLHAWFSWLHQSQAGPLPLSYRWRGRDPALPTLLNPKTLPSGLDDYPRASHPSVTERHLDLRCWVALGARVLTRLAEHLGEAEVAAELGPLAASLEAAESLDELHWAPELGVFADFGNHTKAVQLKPRPPQGLVRVVGRPQPQLQYVDALGYVSLFPLLLRLLDPTSSRLGPLLDILADSRHLWSPFGLRSLAASSSFYGQRNSEHDPPYWRGAVWLNVNYLALGALHHYGHLEGPHQARAAKLHGELRANVVGNVWRQYQATGFLWEQYSDRDGRGMGCRPFHGWTSLVLLAMAEDY

— publication PMC12032772
